The text below walks through data of PMC10589313 (Nature Communications, 2023).

Protein sequences, listed by entry. Tags and fused reporters are not part of them.
UniProt Q9H3N8, whole entry N147Y: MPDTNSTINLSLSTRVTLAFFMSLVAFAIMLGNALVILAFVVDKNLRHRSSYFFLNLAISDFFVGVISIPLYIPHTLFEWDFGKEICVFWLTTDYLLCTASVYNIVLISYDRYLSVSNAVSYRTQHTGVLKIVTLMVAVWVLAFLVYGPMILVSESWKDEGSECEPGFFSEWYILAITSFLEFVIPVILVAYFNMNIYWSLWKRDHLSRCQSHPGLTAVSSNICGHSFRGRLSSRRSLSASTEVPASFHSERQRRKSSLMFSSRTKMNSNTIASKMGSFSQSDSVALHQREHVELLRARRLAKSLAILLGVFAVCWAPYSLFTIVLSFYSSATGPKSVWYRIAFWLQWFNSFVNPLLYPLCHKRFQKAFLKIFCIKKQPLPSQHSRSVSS
UniProt Q9H3N8, whole entry D94A: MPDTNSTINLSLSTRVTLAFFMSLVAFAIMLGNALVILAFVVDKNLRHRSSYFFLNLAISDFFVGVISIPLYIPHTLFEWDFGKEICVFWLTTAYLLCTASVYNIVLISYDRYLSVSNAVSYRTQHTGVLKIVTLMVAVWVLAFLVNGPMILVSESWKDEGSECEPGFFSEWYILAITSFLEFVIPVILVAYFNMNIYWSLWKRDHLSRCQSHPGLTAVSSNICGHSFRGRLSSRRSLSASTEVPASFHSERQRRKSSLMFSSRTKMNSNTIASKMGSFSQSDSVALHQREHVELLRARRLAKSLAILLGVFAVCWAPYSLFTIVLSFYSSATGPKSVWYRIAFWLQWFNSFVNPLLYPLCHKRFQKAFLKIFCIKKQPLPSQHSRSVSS
UniProt Q9H3N8, whole entry E182N: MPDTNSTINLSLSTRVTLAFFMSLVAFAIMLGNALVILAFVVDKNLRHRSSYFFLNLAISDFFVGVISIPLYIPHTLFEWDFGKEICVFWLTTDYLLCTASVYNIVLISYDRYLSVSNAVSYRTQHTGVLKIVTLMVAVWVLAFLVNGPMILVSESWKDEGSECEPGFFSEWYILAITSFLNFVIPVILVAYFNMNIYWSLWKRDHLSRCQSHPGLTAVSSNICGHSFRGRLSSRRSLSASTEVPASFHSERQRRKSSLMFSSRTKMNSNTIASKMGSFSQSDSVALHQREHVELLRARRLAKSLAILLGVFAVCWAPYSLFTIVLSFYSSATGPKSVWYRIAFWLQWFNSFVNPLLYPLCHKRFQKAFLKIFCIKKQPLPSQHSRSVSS
UniProt Q9H3N8, whole entry T99A: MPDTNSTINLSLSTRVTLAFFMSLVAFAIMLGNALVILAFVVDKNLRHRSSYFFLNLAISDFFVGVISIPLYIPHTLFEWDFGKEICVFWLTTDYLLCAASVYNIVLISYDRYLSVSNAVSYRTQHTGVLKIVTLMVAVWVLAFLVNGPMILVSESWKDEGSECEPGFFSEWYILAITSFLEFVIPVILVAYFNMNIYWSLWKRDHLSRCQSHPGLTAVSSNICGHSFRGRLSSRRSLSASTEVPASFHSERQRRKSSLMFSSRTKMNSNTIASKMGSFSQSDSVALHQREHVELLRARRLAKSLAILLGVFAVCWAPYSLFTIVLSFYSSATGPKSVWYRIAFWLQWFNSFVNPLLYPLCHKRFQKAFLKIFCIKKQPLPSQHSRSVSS

Molecules are shown by their SMILES. “And” between values parts separate entries of the source, which are not always exact repeats. Equal entries are not always repeated. This continues a long series; more values of the same kind are listed elsewhere.

What all share (assay type): cell-based
The target of one assay is T1, human H4R N147Y mutant (Homo sapiens, UniProt Q9H3N8, N147Y).
T1 construct: a mutant H4R (human, full-length, and untagged); expressed in transfected cells; host or cells: HEK293A
As to the kind of experiment: TGFα shedding assay, H4R N147Y mutant. The protocol: (§1) The mutants were prepared using the primers listed in Supplementary Table 2. […] The chimeric Gαq/i1 subunit comprises the Gαq backbone and Gαi1-derived six-amino acid C-terminus and couples with Gi-coupled H4R but induces a Gq-dependent TGFα shedding response. After culturing for 1 day and incubating at 37 °C in a 5% CO2 incubator, the transfected cells were harvested by trypsinization, neutralized with Dulbecco’s modified Eagle’s medium containing 10% fetal calf serum (FCS) and penicillin–streptomycin, washed once with Hank’s balanced salt solution (HBSS) containing 5 mM of HEPES (pH 7.4), and resuspended in 6 mL of the HEPES-containing HBSS. The cell suspension was seeded into a 96-well plate at a volume of […] per well (typically, 48 wells per transfected cells) and incubated for 30 min in the CO2 incubator. Test compounds (10×, diluted in 0.01% BSA and 5 mM of HEPES-containing HBSS, […] volume) were added to duplicate wells and incubated for 1 h. After centrifugation, the conditioned medium ([…]) was transferred to an empty 96-well plate. AP reaction solution [10 mM of p-nitrophenylphosphate (p-NPP), 120 mM of Tris–HCl (pH 9.5), 40 mM of NaCl, and 10 mM of MgCl2] was dispensed into the cell culture plates and plates containing conditioned media ([…]). Absorbance was measured at 405 nm before and after a 1-h incubation period at 25 °C using a microplate reader (iMark™ Microplate Absorbance Reader; BioRad). Ligand-induced AP-TGFα release was calculated as previously described. The vehicle-treated AP-TGFα release signal was set as a baseline unless otherwise specified. AP-TGFα release signals were fitted with a four-parameter sigmoidal concentration-response curve, from which EC50 and Emax values were obtained, using GraphPad Prism 9 software (GraphPad Prism). Negative values of logarithmically transformed EC50 values (pEC50) were used to calculate the mean and standard error of independent experiments.
(§2) All functional study data were analyzed using Prism 9 (GraphPad) and are presented as mean ± standard error of the mean (SEM) of three independent experiments. Statistical analyses were performed using Prism 9 (GraphPad) with one-way analysis of variance followed by Dunnett’s post-hoc test. Values with p < 0.05 are considered statistically significant.

The next assay addresses T2, human H4R D94A mutant (Homo sapiens, UniProt Q9H3N8, D94A).
T2 construct: a mutant H4R (human, full-length, and untagged); expressed in transfected cells; host or cells: HEK293A
As to the kind of experiment: TGFα shedding assay, H4R D94A mutant. The protocol:
as §1, §2

For the next assay, the target named is T3, human H4R E182N mutant (Homo sapiens, UniProt Q9H3N8, E182N).
T3 construct: a mutant H4R (human, full-length, and untagged); expressed in transfected cells; host or cells: HEK293A
As to the kind of experiment: TGFα shedding assay, H4R E182N mutant. As for the experimental part: as §1, §2

The target of the next assay is T4, human H4R T99A mutant (Homo sapiens, UniProt Q9H3N8, T99A).
T4 construct: a mutant H4R (human, full-length, and untagged); expressed in transfected cells; host or cells: HEK293A
Kind of assay: TGFα shedding assay, H4R T99A mutant. The protocol:
as §1, §2

Where [1] appears, read: Histamine (M) -5, raw replicates.
[2] abbreviates: Histamine (M) -6, raw replicates.
Setting [3] is: Histamine (M) -7, raw replicates.
Setting [4] is: Histamine (M) -8, raw replicates.
Where [5] appears, read: Histamine (M) -9, raw replicates.
The mark [6] stands for this setting: Histamine (M) -10, raw replicates.

Consider `NCCc1c[nH]cn1` [Histamine, histamine], for which the Shedding assay on human H4R N147Y mutant (setting [1]) is 13.7821 and 13.3478 and 12.298 and 12.8327 and 10.2802 and 12.0547 and 11.8144 and 13.2013 and 13.0412; on human H4R N147Y mutant (setting [2]) it was 11.4452 and 12.4855 and 11.893 and 9.67 and 9.387 and 10.7722 and 12.2374 and 14.504 and 13.4798; at human H4R N147Y mutant (setting [3]), 7.681 and 7.528 and 5.139 and 6.132 and 4.155 and 5.617 and 6.671 and 8.401 and 8.0366; at human H4R N147Y mutant (setting [4]) it was 2.314 and 0.9657 and 0.6398 and 0.6078 and -0.9168 and -2.246 and 0.06933 and 1.443 and 1.999; at human H4R N147Y mutant (setting [5]), 0.4611 and -0.4229 and -0.9874 and -0.3819 and -0.892 and -2.342 and -0.7097 and -1.522 and -0.7838; at human H4R N147Y mutant (setting [6]), -0.3603 and -1.895 and -1.262 and -0.19 and -1.83 and -2.274 and -0.5814 and 0.8897 and 0.6654. The Shedding assay on human H4R D94A mutant (setting [1]) is -2.627 and -0.5435 and -1.634 and 0.2165 and 1.147 and 2.538 and -1.401 and -0.5234 and 4.792; on human H4R D94A mutant (setting [2]) it was -2.905 and -1.315 and -1.632 and 2.459 and 0.7774 and 3.096 and -0.3815 and -0.8815 and 2.002; at human H4R D94A mutant (setting [3]), -3.462 and -2.691 and -1.9326 and 1.564 and -0.214 and 0.4839 and -2.735 and -1.851 and 4.699; on human H4R D94A mutant (setting [4]), -2.53 and -1.213 and -2.2775 and 1.276 and -0.4549 and 1.763 and -3.129 and -3.122 and 5.7144; at human H4R D94A mutant (setting [5]), -1.034 and -1.549 and -1.1201 and 0.4177 and -3.096 and 1.249 and -5.99 and 0.07075 and 5.674; at human H4R D94A mutant (setting [6]), -2.758 and -0.6865 and -1.195 and 1.168 and -0.634 and 1.295 and -0.9831 and 1.667 and 7.52. In addition, the Shedding assay on human H4R E182N mutant (setting [1]) is 2.283 and 0.3446 and -0.7988 and 1.144 and 1.489 and 0.4153 and -0.269 and 1.255 and 1.07; at human H4R E182N mutant (setting [2]), 1.4011 and 1.681 and -0.5177 and -0.1049 and 1.1703 and 0.4282 and -1.63 and -0.5758 and -6.389; at human H4R E182N mutant (setting [3]) it was -1.167 and -1.6961 and -0.3592 and 0.8974 and -2.519 and -1.404 and -0.7728 and -0.31 and -3.26; on human H4R E182N mutant (setting [4]) it was -2.792 and -1.087 and -2.247 and 0.5182 and -3.215 and -0.05429 and -2.711 and -1.032 and -0.8917; at human H4R E182N mutant (setting [5]), -2.095 and -1.621 and -1.3247 and -1.362 and -3.388 and -0.4552 and -4.619 and -0.5505 and 2; on human H4R E182N mutant (setting [6]), -2.037 and -0.5594 and -1.805 and 0.7761 and -1.742 and 0.02137 and -1.808 and 0.1874 and 0.3802. In addition, the Shedding assay was 18.2052 and 32.5905 and 16.8537 and 31.7808 and 29.7103 and 34.4811 and 15.8247 and 17.4448 and 16.925 on human H4R T99A mutant (setting [1]); 13.2241 and 23.9164 and 10.9821 and 27.1415 and 25.8559 and 30.2883 and 11.7617 and 10.9719 and 11.2113 at human H4R T99A mutant (setting [2]); 5.162 and 14.3843 and 7.929 and 17.2954 and 13.901 and 14.2605 and 5.373 and 6.529 and 5.716 on human H4R T99A mutant (setting [3]); -4.2708 and 7.237 and 0.9758 and 4.661 and 2.68 and 3.92 and -0.3411 and 1.285 and -0.7717 on human H4R T99A mutant (setting [4]).
